# Source: paper PMC4912631
# Sequences of proteins named here, by UniProt entry; tags and fusion partners are left off. A change or cut given only in a name is not applied to a line headed by its entry. A line that says so, or that is headed by a name, gives the form on record, which may keep a tag or linker. Residues count along the entry.
# UniProt P63241: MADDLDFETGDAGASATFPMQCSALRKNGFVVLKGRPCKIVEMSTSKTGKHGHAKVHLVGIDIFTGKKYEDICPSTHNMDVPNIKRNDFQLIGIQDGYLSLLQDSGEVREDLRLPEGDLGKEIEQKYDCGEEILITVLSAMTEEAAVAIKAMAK
# ZZ-bdSUMO tagged (non-hypusinated) wild-type eIF5A (not stated (mammalian)): residues 15-151 of P63241
# ZZ-bdSUMO tagged (non-hypusinated) eIF5A E42A (not stated (mammalian)) (P63241, form named): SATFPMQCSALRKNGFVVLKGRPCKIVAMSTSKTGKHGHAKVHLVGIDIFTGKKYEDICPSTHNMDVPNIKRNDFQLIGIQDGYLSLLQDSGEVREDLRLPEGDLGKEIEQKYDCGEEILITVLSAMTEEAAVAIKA
# UniProt Q9ESJ0: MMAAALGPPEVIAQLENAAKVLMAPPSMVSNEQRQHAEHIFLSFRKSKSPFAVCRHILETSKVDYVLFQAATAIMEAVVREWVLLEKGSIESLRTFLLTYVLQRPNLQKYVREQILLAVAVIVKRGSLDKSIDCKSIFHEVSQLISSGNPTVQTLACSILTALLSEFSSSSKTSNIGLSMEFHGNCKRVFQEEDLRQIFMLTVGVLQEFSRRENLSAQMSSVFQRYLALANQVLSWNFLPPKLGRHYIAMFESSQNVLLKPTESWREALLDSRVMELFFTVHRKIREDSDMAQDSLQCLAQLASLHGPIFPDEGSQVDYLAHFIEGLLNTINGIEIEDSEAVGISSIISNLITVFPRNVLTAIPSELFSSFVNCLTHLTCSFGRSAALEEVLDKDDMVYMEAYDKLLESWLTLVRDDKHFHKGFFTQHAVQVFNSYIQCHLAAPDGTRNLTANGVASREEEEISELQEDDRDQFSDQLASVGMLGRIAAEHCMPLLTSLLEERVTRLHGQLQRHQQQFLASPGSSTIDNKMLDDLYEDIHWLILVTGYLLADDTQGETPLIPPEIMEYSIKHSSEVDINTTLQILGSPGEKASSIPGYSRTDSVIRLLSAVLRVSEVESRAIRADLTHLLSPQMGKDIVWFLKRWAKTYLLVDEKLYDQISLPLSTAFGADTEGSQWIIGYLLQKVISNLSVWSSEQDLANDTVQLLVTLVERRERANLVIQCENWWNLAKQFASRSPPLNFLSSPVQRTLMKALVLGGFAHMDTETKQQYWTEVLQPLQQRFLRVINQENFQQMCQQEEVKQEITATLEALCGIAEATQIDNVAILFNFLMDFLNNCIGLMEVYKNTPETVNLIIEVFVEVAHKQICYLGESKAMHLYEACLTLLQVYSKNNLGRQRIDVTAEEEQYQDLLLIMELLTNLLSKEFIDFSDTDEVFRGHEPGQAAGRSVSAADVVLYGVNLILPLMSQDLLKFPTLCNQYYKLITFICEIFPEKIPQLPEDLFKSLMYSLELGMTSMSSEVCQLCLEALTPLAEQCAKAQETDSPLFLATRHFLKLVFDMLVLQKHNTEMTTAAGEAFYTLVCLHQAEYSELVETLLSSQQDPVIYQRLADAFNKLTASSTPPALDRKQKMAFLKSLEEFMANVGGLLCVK
# These are yes or no findings as the source states them, for the method shown. Some entries that bind do so weakly or less than the wild type.
# What was measured:
# [1] = target: ZZ-bdSUMO tagged (non-hypusinated) eIF5A E42A (not stated (mammalian)) (UniProt P63241); assay: pull-down; 1 μM untagged RanGTP and Xpo4 with 0.75 μM ZZ-bdSUMO tagged (non-hypusinated) wild-type or mutant eIF5A, 50 mM NaCl buffer; retrieved via tagged eIF5A; eluted by bdSENP1; SDS-PAGE, Coomassie; both purified
# [2] = target: ZZ-bdSUMO tagged (non-hypusinated) wild-type eIF5A (not stated (mammalian)) (UniProt P63241); assay: as above
# [3] = target: Xpo4 D470N (not stated (mammalian)) (UniProt Q9ESJ0); assay: pull-down; 1 μM Xpo4 wild type or mutants, 0.75 μM ZZ-bdNEDD8-tagged RanGTP, 1.25 μM hypusinated eIF5A, 100 mM NaCl buffer; retrieved via tagged Ran; eluted by bdNEDP1 protease; SDS-PAGE, Coomassie; both purified
# [4] = target: Xpo4 E537Q (not stated (mammalian)) (UniProt Q9ESJ0); assay: as above
# [5] = target: Xpo4 S631A (not stated (mammalian)) (UniProt Q9ESJ0); assay: as above
binding [1],binding [2],Substance,binding [3],binding [4],binding [5]
binds,binds,Xpo4 wild type (from UniProt Q9ESJ0 1-1151),,,
,,"eIF5A, full-length, hypusinated (from UniProt P63241 1-154)","no binding (tested: 1 μM Xpo4, 1.25 μM hypusinated eIF5A)","no binding (tested: 1 μM Xpo4, 1.25 μM hypusinated eIF5A)","no binding (tested: 1 μM Xpo4, 1.25 μM hypusinated eIF5A)"
